{"source": "paper PMC10548170", "biological_target": "T1, SFB-MARCH5 WT (UniProt Q9NX47)", "T1 sequence": "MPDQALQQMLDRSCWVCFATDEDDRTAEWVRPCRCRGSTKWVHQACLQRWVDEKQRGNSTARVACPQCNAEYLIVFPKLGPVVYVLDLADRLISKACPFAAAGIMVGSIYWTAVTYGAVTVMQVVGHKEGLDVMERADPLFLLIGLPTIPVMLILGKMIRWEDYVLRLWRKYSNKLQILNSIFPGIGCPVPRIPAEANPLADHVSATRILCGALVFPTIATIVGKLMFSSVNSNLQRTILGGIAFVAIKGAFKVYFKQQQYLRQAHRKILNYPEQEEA", "experiment": "co-IP; HEK293T (MARCH5 KO by the text) cotransfected with Myc-NLRP3 WT or deletion mutants and SFB-MARCH5 WT; LPS 200 ng/ml 4 h and nigericin 15 uM 60 min; lysates precipitated with streptavidin beads, immunoblot", "note": "These are yes or no findings as the source states them, for the method shown. Binding seen in cells or lysates may run through a third protein."}
{"substance": "Myc-NLRP3 ΔNACHT (domain or fragment)", "values": [{"measurement": "binding", "result": "no binding"}]}
